Record: PubChem BioAssay AID1159578 (Peter MacCallum Cancer Centre, 2015)
The whole screen tested about 18,000 reagents; below is an unselected part. About 1,030 of them (5.7%) count as active. 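Inactive calls also include pools with fewer than 3300 nuclei, whose migration was not assessed.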 Raw values are not corrected between plates. Not all columns of the deposit are shown. No sequences are given here.

- Purpose: 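Genome-wide hunt for genes controlling movement of lymphatic endothelial cells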 (primary screen)
- Cells: human lymphatic endothelial cells
- Knock-down reagent: siRNA pool against human genes, 40 nM
- Timing: 48 h after transfection
- Read-out: 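High-content imaging of dye-stained cells in a scratch assay measures filled wound area and nuclei per well; duplicate means given as ratio to mock and robust z-score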
- Scale: migration robust z-score: higher = faster migration into the scratch; nuclei per well: higher = more cells in the well
- Hit rule: 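Migration changed when robust z exceeds 2 or falls below -2 and mean nuclei number is at least 3300; otherwise not called changed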
- Calls: active = migration changed; inactive = no migration change, or too few cells

For SEMA3D (semaphorin 3D), what does the deposit list?
migration robust z-score: -0.01; nuclei per well, duplicate mean: 6290; outcome: inactive

What is on record for NR3C2 (nuclear receptor subfamily 3 group C member 2)?
migration robust z-score: 1.25; nuclei per well, duplicate mean: 6651; outcome: inactive

What did the screen give for PDGFRA (platelet derived growth factor receptor alpha)?
migration robust z-score: -0.62; nuclei per well, duplicate mean: 4919; outcome: inactive

How did the screen score ADAMTSL5 (ADAMTS like 5)?
migration robust z-score: 0.65; nuclei per well, duplicate mean: 7631; outcome: inactive

What is on record for KRABD4 (KRAB domain containing 4)?
migration robust z-score: -0.61; nuclei per well, duplicate mean: 6658; outcome: inactive

Which result is listed for AEBP1 (AE binding protein 1)?
migration robust z-score: 0.7; nuclei per well, duplicate mean: 5908; outcome: inactive

For BIRC3 (baculoviral IAP repeat containing 3), how do the results read?
migration robust z-score: 0.5; nuclei per well, duplicate mean: 6189; outcome: inactive

What did the screen give for STRN (striatin)?
migration robust z-score: 0.02; nuclei per well, duplicate mean: 7700; outcome: inactive

How did the screen score PMM1 (phosphomannomutase 1)?
migration robust z-score: -0.7; nuclei per well, duplicate mean: 4728; outcome: inactive

Which result is listed for DEFA5 (defensin alpha 5)?
migration robust z-score: 0.41; nuclei per well, duplicate mean: 5799; outcome: inactive

How did the screen score SETX (senataxin)?
migration robust z-score: 0.38; nuclei per well, duplicate mean: 6132; outcome: inactive

What did the screen give for TIRAP (TIR domain containing adaptor protein)?
migration robust z-score: -0.92; nuclei per well, duplicate mean: 5580; outcome: inactive

For ITFG2 (integrin alpha FG-GAP repeat containing 2), what was measured?
migration robust z-score: -2.48; nuclei per well, duplicate mean: 5194; outcome: active

What did the screen give for CEBPE (CCAAT enhancer binding protein epsilon)?
migration robust z-score: -1.08; nuclei per well, duplicate mean: 6506; outcome: inactive

With ZNF646 (zinc finger protein 646), how do the results read?
migration robust z-score: 0.78; nuclei per well, duplicate mean: 5610; outcome: inactive

With ARL6IP5 (ARF like GTPase 6 interacting protein 5), what was measured?
migration robust z-score: 0.66; nuclei per well, duplicate mean: 6226; outcome: inactive

With LCE3D (late cornified envelope 3D), what does the deposit list?
migration robust z-score: -0.84; nuclei per well, duplicate mean: 4322; outcome: inactive

What is on record for AP2M1 (adaptor related protein complex 2 subunit mu 1)?
migration robust z-score: -0.72; nuclei per well, duplicate mean: 5122; outcome: inactive

Which result is listed for RPS16 (ribosomal protein S16)?
migration robust z-score: -1.01; nuclei per well, duplicate mean: 3774; outcome: inactive

Which result is listed for RAB9A (RAB9A, member RAS oncogene family)?
migration robust z-score: 1.32; nuclei per well, duplicate mean: 4691; outcome: inactive

How did the screen score CYB561A3 (cytochrome b561 family member A3)?
migration robust z-score: -0.66; nuclei per well, duplicate mean: 5096; outcome: inactive

With DNAAF11 (dynein axonemal assembly factor 11), what does the deposit list?
migration robust z-score: 0.7; nuclei per well, duplicate mean: 6064; outcome: inactive

What did the screen give for KLC2 (kinesin light chain 2)?
migration robust z-score: 0.4; nuclei per well, duplicate mean: 5943; outcome: inactive

How did the screen score APCDD1 (APC down-regulated 1)?
migration robust z-score: 0.05; nuclei per well, duplicate mean: 5694; outcome: inactive

What did the screen give for MCMBP (minichromosome maintenance complex binding protein)?
migration robust z-score: -0.94; nuclei per well, duplicate mean: 5819; outcome: inactive

For HIGD1A (HIG1 hypoxia inducible domain family member 1A), how do the results read?
migration robust z-score: 0.26; nuclei per well, duplicate mean: 6806; outcome: inactive

Which result is listed for LOC642678 (retired record)?
migration robust z-score: 0.02; nuclei per well, duplicate mean: 5562; outcome: inactive
